Binding data for one substance are collected here from PMC7293280.

Protein sequences, listed by entry. Tags and fused reporters are not part of them.
UniProt Q02248: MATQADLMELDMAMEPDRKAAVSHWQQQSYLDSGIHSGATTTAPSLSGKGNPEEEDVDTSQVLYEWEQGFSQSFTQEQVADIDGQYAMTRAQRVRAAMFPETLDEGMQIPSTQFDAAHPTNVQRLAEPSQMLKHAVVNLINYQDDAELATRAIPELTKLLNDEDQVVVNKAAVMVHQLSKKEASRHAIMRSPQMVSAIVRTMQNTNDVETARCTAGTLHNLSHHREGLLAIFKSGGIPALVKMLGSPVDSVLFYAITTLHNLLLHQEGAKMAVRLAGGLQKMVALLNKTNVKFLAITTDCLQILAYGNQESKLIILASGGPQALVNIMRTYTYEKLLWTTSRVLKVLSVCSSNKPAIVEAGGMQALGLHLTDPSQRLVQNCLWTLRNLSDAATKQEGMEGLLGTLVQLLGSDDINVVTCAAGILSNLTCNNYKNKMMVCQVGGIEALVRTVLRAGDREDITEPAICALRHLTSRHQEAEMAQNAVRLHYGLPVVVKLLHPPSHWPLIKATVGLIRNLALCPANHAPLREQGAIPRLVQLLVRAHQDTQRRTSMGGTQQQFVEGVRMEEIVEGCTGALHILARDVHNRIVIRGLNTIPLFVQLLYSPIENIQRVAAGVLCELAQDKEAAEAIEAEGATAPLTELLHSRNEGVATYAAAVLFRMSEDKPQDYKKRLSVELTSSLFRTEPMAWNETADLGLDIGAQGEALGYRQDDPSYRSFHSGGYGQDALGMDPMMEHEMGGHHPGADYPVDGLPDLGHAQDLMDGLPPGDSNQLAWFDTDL

No constants are given. Whether binding was seen depends on the method and setting. In cells and extracts the contact can be indirect. Some binding calls cover weakened binding; strength is not graded here. For part of these data: Sequences can lack the tags named with a protein.

What all share (assay): co-IP; plasmids co-transfected into HEK293T cells; lysates, Dynabeads Protein G with anti-FLAG, anti-HA or anti-MYC antibody, overnight 4 °C, washes PBS 0.1% Tween
Assay [1] deals with T1, ADNP-Cter (686–1108) (mouse) (UniProt Q9Z103).
T1 sequence: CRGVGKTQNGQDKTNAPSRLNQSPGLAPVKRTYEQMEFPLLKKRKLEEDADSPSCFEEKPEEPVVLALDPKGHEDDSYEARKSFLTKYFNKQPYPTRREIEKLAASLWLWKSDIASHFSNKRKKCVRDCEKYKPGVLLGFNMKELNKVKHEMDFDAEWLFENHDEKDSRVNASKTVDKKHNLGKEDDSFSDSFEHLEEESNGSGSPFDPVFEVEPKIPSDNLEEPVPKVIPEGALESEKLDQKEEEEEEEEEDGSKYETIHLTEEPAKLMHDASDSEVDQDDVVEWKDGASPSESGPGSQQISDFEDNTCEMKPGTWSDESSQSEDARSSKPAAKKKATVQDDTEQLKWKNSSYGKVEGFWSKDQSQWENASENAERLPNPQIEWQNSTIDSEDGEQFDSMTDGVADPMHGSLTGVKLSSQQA

Assay [2] deals with T2, ADNP-Nter without NAP (mouse) (UniProt Q9Z103).
T2 sequence: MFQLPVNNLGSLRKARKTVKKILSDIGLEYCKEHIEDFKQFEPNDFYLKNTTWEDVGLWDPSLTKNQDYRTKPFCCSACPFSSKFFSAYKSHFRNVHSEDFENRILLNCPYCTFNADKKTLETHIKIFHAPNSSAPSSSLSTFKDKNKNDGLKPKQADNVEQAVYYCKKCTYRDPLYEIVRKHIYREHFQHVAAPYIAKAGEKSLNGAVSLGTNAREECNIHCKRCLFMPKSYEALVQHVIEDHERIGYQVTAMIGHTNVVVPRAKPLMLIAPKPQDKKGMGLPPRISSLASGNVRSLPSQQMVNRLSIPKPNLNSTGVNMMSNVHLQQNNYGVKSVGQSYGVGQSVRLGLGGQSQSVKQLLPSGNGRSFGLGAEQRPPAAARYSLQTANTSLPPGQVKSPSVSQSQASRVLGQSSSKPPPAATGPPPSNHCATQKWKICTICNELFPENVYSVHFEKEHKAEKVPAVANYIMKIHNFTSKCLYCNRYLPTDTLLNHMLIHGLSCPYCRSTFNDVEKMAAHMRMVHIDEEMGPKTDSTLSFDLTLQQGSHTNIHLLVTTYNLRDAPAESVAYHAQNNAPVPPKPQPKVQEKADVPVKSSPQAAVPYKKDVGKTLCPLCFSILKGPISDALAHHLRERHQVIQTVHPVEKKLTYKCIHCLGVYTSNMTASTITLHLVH

Assay [3] concerns the target T3, FLAG-ADNP-Nter (1–685) (mouse) (UniProt Q9Z103).
T3 sequence: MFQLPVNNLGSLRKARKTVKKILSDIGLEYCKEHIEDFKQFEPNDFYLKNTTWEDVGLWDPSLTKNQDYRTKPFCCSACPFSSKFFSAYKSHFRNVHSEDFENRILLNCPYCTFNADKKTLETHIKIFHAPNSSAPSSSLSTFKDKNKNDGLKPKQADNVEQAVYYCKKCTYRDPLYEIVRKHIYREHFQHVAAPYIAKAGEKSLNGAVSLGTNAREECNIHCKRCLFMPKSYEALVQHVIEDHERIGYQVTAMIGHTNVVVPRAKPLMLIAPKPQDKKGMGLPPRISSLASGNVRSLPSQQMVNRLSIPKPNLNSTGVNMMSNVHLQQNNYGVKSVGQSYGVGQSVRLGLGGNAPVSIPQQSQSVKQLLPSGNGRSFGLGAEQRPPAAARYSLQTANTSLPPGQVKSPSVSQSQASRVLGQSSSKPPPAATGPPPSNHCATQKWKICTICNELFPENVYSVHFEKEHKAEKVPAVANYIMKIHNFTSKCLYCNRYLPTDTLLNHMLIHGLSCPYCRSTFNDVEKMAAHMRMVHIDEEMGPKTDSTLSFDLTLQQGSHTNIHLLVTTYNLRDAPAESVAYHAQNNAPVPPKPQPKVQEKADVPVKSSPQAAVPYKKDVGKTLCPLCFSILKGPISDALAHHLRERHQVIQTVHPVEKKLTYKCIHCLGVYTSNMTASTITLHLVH

Take “Myc-β-catenin (from UniProt Q02248 1-781)”: the binding entry in assay [1] was “no binding”; in assay [2] it was “binds”; in assay [3], “binds”.
